Measurements published in patent publication US20230287433, “APTAMERS FOR PERSONAL HEALTH CARE APPLICATIONS” (The Procter & Gamble Company, published 2023).

Sequences of proteins named here, by UniProt entry; tags and fusion partners are left off. Residues count along the entry.
UniProt P05362, 28-532: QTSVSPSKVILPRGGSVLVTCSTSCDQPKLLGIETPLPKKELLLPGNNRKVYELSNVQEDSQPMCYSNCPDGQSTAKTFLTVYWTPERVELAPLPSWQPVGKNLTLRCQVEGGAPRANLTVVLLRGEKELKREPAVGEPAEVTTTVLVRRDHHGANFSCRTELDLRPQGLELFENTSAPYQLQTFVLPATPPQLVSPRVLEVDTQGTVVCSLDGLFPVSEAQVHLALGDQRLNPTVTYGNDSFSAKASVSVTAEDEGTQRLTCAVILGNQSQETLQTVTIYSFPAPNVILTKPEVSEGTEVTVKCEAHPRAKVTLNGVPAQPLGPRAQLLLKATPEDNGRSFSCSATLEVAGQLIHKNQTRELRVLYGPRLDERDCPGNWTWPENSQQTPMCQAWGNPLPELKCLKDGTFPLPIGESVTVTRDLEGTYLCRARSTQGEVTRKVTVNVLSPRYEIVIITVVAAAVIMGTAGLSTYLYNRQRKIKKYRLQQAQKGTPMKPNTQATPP

Molecular target: ICAM-1 (on cells) (Homo sapiens) (UniProt P05362)
Assay: binding assay
Settings: protein on the cell surface
[1] = 2'-F pyrimidines (all C and U), qPCR cell binding, HNEpC higher than HEK293

Sequence: AGGTCCTCAAGCAGCTTTGTCCTGCTGCTGAGGAAGG [Nas.D-8.1]
- binding result (HNEpC cells, peaks 0.5 h and 2 h, higher than parent, RH-30 worse, label: FAM, single-stranded DNA, variant of Nas.D-8): binds

Sequence: GGGTGCATCGTTTACGCGCAACATAAAAATTTAAAGTGCTCAGTTGTCAATCTATGACTGCTGCTGAGGAAGGATATGAG [Nas.D-4]
- binding result (HNEpC cells, 500 nM, RH-30 below 500 RFU, label: FAM, single-stranded DNA, variant of Nas.R-4): binds

Sequence: GGGTGCATCGTTTACGCGCAACATAAAAATTTAAAGTGCTCAGTTGTCAATCTATGACTGCTGCTGAGGAAGGATATGAGAAACAAACAAACGTATGGCGGTCTCCAACAGG / CCTGTTGGAGACCGCCATAC
- binding result (2'-F pyrimidines in RNA strand, fluorescence microscopy on HNEpC, no fluorescence on HEK293, label: 5' 6-FAM on DNA antisense strand, variant of Nas.R-4): binds

Sequence: GGGTGCATCGTTTACGCGTAAAAATTAAAGAGATTAAGGTCCTTAAGCAGTTTTGTCCTGCTGCTGAGGAAGGATATGAG [Nas.D-8]
- binding result (HNEpC cells, lower than truncated 8.1, RH-30 worse, label: FAM, single-stranded DNA, variant of Nas.R-8): binds

Sequence: GGGTGCATCGTTTACGCGTAAATGGTCCGCTATTAAAAGAAAAGAATGAAGTCTCAGCTGCTGCTGAGGAAGGATATGAG [Nas.D-5]
- binding result (HNEpC cells, 500 nM, RH-30 hardly detectable, label: FAM, single-stranded DNA, variant of Nas.R-5): binds

Sequence: GGGUGCAUCGUUUACGCGUAAAUAAGUAGAUAAAGUGGCAGUUUGUUUUCCUUGGAACUGCUGCUGAGGAAGGAUAUGAG [Nas.R-7]
- binding result [1]: binds

Sequence: GGGUGCAUCGUUUACGCGUAAAUGGUCCGCUAUUAAAAGAAAAGAAUGAAGUCUCAGCUGCUGCUGAGGAAGGAUAUGAG [Nas.R-5]
- binding result [1]: binds

Where cells or extracts were used, other partners may take part.
